This passage reports binding results from PMC11066431.

Amino acid sequences for entries named in this document (tags omitted).
UniProt P60953: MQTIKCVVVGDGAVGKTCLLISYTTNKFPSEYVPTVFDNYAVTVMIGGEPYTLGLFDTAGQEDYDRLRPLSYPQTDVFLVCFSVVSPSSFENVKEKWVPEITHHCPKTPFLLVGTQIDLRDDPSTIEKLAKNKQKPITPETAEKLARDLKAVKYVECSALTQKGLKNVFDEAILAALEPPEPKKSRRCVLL
UniProt P61586: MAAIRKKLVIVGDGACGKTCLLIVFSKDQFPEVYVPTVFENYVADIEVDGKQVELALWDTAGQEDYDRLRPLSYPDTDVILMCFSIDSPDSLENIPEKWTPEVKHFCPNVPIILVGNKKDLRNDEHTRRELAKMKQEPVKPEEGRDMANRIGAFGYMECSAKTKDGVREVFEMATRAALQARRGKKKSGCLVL

Results are given in words; binding and its absence hold for the method and conditions named. Binding seen in cells or lysates may run through a third protein. Some entries that bind do so weakly or less than the wild type. Tags and fused reporters may be left off the sequences shown.

The test addresses T1, FLAG-tagged ATG9B (UniProt Q674R7).
T1 sequence: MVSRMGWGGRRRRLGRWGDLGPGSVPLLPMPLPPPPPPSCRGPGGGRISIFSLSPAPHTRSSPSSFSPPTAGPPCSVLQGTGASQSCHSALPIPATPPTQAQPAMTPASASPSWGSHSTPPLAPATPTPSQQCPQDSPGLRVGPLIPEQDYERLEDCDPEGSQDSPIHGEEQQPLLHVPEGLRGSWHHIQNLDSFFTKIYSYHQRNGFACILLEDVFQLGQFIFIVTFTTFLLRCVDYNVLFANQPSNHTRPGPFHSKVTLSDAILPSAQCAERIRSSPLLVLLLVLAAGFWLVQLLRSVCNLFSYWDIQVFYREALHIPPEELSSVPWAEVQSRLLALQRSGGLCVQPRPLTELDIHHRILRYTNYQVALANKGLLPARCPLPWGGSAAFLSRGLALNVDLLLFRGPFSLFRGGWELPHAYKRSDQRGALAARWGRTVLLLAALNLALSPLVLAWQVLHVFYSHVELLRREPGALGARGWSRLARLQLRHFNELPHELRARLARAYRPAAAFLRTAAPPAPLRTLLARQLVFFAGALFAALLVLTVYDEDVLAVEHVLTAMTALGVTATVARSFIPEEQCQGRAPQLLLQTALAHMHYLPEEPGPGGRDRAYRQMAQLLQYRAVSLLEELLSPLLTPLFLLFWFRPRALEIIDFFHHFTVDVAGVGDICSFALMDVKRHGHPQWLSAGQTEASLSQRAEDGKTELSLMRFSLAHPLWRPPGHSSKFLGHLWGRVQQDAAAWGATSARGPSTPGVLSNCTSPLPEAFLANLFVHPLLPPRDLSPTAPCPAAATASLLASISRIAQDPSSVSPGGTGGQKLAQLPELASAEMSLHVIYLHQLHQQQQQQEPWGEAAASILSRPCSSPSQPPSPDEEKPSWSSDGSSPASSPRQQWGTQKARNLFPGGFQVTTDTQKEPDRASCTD
As to the kind of experiment: co-IP; HEK293T cells transfected with FLAG- and mClover-tagged plasmids; lysis in 10 mM Tris-HCl pH 8.0, 150 mM NaCl, 10 mM MgCl2, 1 mM EDTA, 1% Triton X-100; anti-FLAG antibody 2 h at 4°C, Protein G Sepharose 4B 1 h; five washes; immunoblotting.

As for “mClover-tagged Cdc42 (from UniProt P60953 1-191)”, the binding entry is on record as “binds”.
Regarding “mClover-tagged RhoA (from UniProt P61586 1-193)”, the binding result was “binds”.
